# PubChem BioAssay AID1665 (Sanford-Burnham Center for Chemical Genomics, 2009)
# The list shows a part of the results.
# Assay: beta-catenin nuclear localization change in HeLa – imaging, HeLa cells, immunofluorescence, high-content, primary screen (AID 1665)
# Details: HeLa beta-catenin nuclear translocation, measured here: cell count, cytotoxicity flag, at 5 µM
row,SMILES,cell count [cells]
1,O=[N+]([O-])c1ccc2c(c1)nnn2O,1240
2,NC(=O)Nc1ccc([As](=O)(O)O)cc1,1140
3,O=C(O)COc1ccc([As](=O)(O)O)cc1[N+](=O)[O-],1260
4,Nc1ccccc1[As](=O)(O)c1ccccc1,1360
5,O=P(Nc1nccs1)(c1ccccc1)c1nc2ccccc2s1 (centres undefined),1080
6,O=P(Nc1nccs1)(Oc1ccccc1)Oc1ccccc1,559
7,O=C(O)c1cccc(Nc2c([N+](=O)[O-])cc([N+](=O)[O-])cc2[N+](=O)[O-])c1,1340
8,CS(=O)(=O)c1cc([N+](=O)[O-])c2no[n+]([O-])c2c1,1310
9,O=[N+]([O-])c1cc([N+](=O)[O-])c(-c2ccn[nH]2)s1,440
10,CCN(CC)C(=S)SC(NC=O)C(Cl)(Cl)Cl (centres undefined),999
11,CC(C)NC(=O)NP(=O)(Oc1ccccc1)Oc1ccccc1,1100
12,COc1ccccc1OP(C)(=O)Nc1cc(Cl)ccc1C (centres undefined),880
13,Cc1cc(C)cc(OP(C)(N)=O)c1 (centres undefined),1090
14,ClCCSc1nnc(-c2cccnc2)o1,940
15,CCOC(=O)c1ccc(NP(C)(=O)Oc2ccccc2)cc1 (centres undefined),581
16,CC(C)c1ccc(OP(=O)(Nc2ccccn2)Oc2ccccc2F)cc1 (centres undefined),1330
17,Cc1ccc(NP(C)(=O)Oc2ccccc2)c(C)c1 (centres undefined),1120
18,Cc1cccc(C)c1OP(C)(N)=O (centres undefined),1100
19,CC(C)(C)c1ccc(OP(C)(=O)Nc2ccc(SC(F)(F)F)cc2)cc1 (centres undefined),1100
20,Cc1ccc(OP(=O)(Nc2ccc([N+](=O)[O-])cn2)Oc2ccc(C)cc2)cc1,1150
21,Cc1ccc2nc3c(c(C)c2c1)CC(C(Cl)Cl)S3 (centres undefined),1160
22,O=[N+]([O-])c1ccc2c(c1)C=Nc1ccccc1O2,1110
23,C[As](=O)(O)c1cccc(C(=O)O)c1,1100
24,O=[As](O)(c1ccc(O)cc1)c1ccccc1O,1390
25,COc1ccc(N/C(=N/P(=O)(N2CCOCC2)N2CCOCC2)N2CCOCC2)cc1,1110

row,SMILES,cell count [cells]
1,COc1cc(I)ccc1[As](=O)(O)O,1300
2,COc1ccc2nc(NP(=O)(c3ccccc3)c3ccccc3)sc2c1,1090
3,Cc1c2c(nc3ccccc13)SC(C(Cl)Cl)C2 (centres undefined),1220
4,CCN(CC)CCCOC(=O)C(O)(c1ccccc1)c1ccccc1,1150
5,Cc1cc(=O)[nH]c(N[N+](=O)[O-])n1,1060
6,O=C(OC1CN2CCC1CC2)C12CC3CC(CC(C3)C1)C2 (centres undefined),1140
7,CCC(C)N(CC(C)C)C(=S)SC(NC(C)=O)C(Cl)(Cl)Cl (centres undefined),572
8,CP(=O)(Nc1ccccn1)Oc1ccc(Cl)cc1 (centres undefined),1150
9,CCOP(C)(=S)SCC(=O)NC(C)C(=O)O (centres undefined),933
10,CCOC(=O)c1ccc(NC(=O)C(C)(CCl)SC)cc1 (centres undefined),1310
11,Cc1cc(C)cc(OP(C)(=O)Nc2ccc(SC(F)(F)F)cc2)c1 (centres undefined),1140
12,CCc1ccc(OP(C)(=O)N2CCN(c3ccc([N+](=O)[O-])cc3)CC2)cc1 (centres undefined),1320
13,CP(=O)(NC(=O)Nc1ccccc1)Oc1ccccc1 (centres undefined),1120
14,O=C(COc1ccccc1)OC1CN2CCC1CC2 (centres undefined),1180
15,CP(=O)(Oc1ccccc1)OC(c1ccccc1)C(F)(F)F (centres undefined),1050
16,CP(=O)(Nc1ccc(SC(F)(F)F)cc1)Oc1ccc(Cl)cc1 (centres undefined),1360
17,Cc1cccc(C)c1OP(C)(=O)Nc1ccc(SC(F)(F)F)cc1 (centres undefined),1120
18,COc1ccccc1OP(C)(=O)Nc1ccccc1 (centres undefined),1090
19,Cc1cc(SC(NC=O)C(Cl)(Cl)Cl)ncn1 (centres undefined),1140
20,O=P(Nc1ccccn1)(c1cccc2ccccc12)c1cccc2ccccc12,1590
21,O=[N+]([O-])c1ccc(Nc2ccc(Oc3ccc([N+](=O)[O-])cc3[N+](=O)[O-])cc2)c([N+](=O)[O-])c1,1240
22,CCOC(=O)Nc1cccc([As](=O)(O)O)c1,1060
23,Cc1cc(SC(NC(=O)c2ccccc2)C(Cl)(Cl)Cl)nc(C(C)C)n1 (centres undefined),1010
24,CCOC(=O)Nc1ccc([As](=O)(O)O)c(O)c1,1270
